{"source": "patent US12662504B2", "about": "“High-solubility rebaudioside D complex” (SUNTORY HOLDINGS LIMITED, priority 2019, dated 2026)", "data": [{"experiment": "Sweetness relative to sugar (sucrose)", "settings": "calculated from central values of the sweetnesses", "units": {"amount of steviol glycoside corresponding to Brix 1": "ppm"}, "values": [{"compound": "C=C1C[C@@]23CC[C@H]4[C@@](C)(CCC[C@@]4(C)C(=O)O[C@@H]4O[C@H](CO)[C@@H](O)[C@H](O)[C@H]4O)[C@@H]2CC[C@]1(O[C@@H]1O[C@H](CO)[C@@H](O)[C@H](O[C@@H]2O[C@H](CO)[C@@H](O)[C@H](O)[C@H]2O)[C@H]1O[C@@H]1O[C@H](CO)[C@@H](O)[C@H](O)[C@H]1O)C3", "note": "[Reb. A, rebaudioside A]", "amount of steviol glycoside corresponding to Brix 1": 30.7}, {"compound": "C=C1C[C@@]23CC[C@H]4[C@@](C)(CCC[C@@]4(C)C(=O)O[C@@H]4OC(CO)[C@@H](O)C(O)C4O[C@@H]4OC(CO)[C@@H](O)C(O)C4O)[C@@H]2CC[C@]1(O[C@@H]1OC(CO)[C@@H](O)C(O[C@@H]2OC(CO)[C@@H](O)C(O)C2O)C1O[C@@H]1OC(CO)[C@@H](O)C(O)C1O)C3", "note": "(stereo partly shown) [Reb. D, rebaudioside D]", "amount of steviol glycoside corresponding to Brix 1": 40.0}, {"compound": "C=C1C[C@@]23CC[C@H]4[C@@](C)(CCC[C@@]4(C)C(=O)O[C@@H]4O[C@H](CO)[C@@H](O)[C@H](O[C@@H]5O[C@H](CO)[C@@H](O)[C@H](O)[C@H]5O)[C@H]4O[C@@H]4O[C@H](CO)[C@@H](O)[C@H](O)[C@H]4O)[C@@H]2CC[C@]1(O[C@@H]1O[C@H](CO)[C@@H](O)[C@H](O[C@@H]2O[C@H](CO)[C@@H](O)[C@H](O)[C@H]2O)[C@H]1O[C@@H]1O[C@H](CO)[C@@H](O)[C@H](O)[C@H]1O)C3", "note": "[Reb. M, rebaudioside M]", "amount of steviol glycoside corresponding to Brix 1": 40.0}, {"compound": "rebaudioside B [Reb. B]", "amount of steviol glycoside corresponding to Brix 1": 30.7}]}]}
